Experimental data as given in publication PMC8073976, “Towards Targeted Alpha Therapy with Actinium-225: Chelators for Mild Condition Radiolabeling and Targeting PSMA—A Proof of Concept Study” (Cancers, 2021).

Assay: 225Ac-labeling of ligands in serial dilution, radiochemical yield and 7-day stability by TLC
Type: physicochemical
Settings: 100 kBq actinium-225, 0.2 M ammonium acetate buffer pH 6, room temperature; for RCY NP (1 h): normal phase TLC, silica, 50 mM EDTA pH 7; for RCY RP (1 h): reversed-phase TLC, Alugram RP-CN, acetonitrile/water 7/3
Description: To compare the efficiency of the synthesized chelators and their conjugates, 100 kBq of actinium-225 were incubated with each ligand at different concentrations (10^−5 M; 10^−6 M; 10^−7 M). The radiochemical yield was determined after one hour of reaction time using normal phase and reversed-phase TLC. Whereas one TLC-system was designed to move free actinium-225 with the solvent front, the other system was developed only to move the actinium-225 labeled complexes. Concentration-dependent radiochemical yields for all ligands and 7-day-longterm yields, which were calculated using both TLC systems, are presented in Table 1.
Actinium-225 was purchased as a 0.1 M HCl solution from ITM Munich and used without purification. Stem solutions of all ligands were prepared in concentrations of 10^−2 M and diluted to 10^−6 M using 0.2 M ammonium acetate buffer at pH 6. For concentration-dependent labeling experiments, 10 µL of each ligand stem solution was incubated with 100 kBq of actinium-225 (1–5 µL) and the total volume was adjusted to 100 µL with 0.2 M ammonium acetate buffer at pH 6. For stability analyses, 50 µL of the buffer volume were replaced by 50 µL of 0.2 M ascorbic acid or 50 µL of 2,5-dihydroxy benzoic acid, respectively. Labeling for cell-binding studies was performed using 1.5 MBq of actinium-225 and 4 nmol of the respective PSMA ligand in a total volume of 400 µL adjusted with 0.2 M ammonium acetate buffer at pH 6. Radiolabeling for cell survival studies and all in vivo experiments were performed using 1.5 MBq of actinium-225 and 3.3 nmol of the respective ligand.
All samples were incubated for one hour at room temperature and analyzed afterward. TLC analyses were carried out in two different systems, normal phase on silica plates in 50 mM EDTA solution (pH 7) and reversed-phase on Alugram RP-CN in acetonitrile/water (7/3). TLC plates were imaged using a phosphoimager Amersham Typhoon 5 Scanner (Cytiva Europe GmbH, Freiburg, Germany) after a decay time of at least 7 h. Analytical HPLC was performed using a Jasco HPLC system with RITA analyzer (Elysia-raytest GmbH, Straubenhardt, Germany) for gamma detection on a Phenomenex Phenyl-Hexyl column in water/acetonitrile (+ 0.1% TFA). Radioactivity was measured in Isomed 2100 dose calibrator. Low radioactivity count rates were determined in Isomed 2160 sodium iodide detector. More precise measurements and nuclide identification were carried out on an activity- and efficiency-calibrated HPGe detector CryoPulse 5 (Canberra).

SMILES	RCY NP (1 h) (ligand 10^−5 M) [%]	RCY RP (1 h) (ligand 10^−5 M) [%]	RCY NP (1 h) (ligand 10^−6 M) [%]	RCY RP (1 h) (ligand 10^−6 M) [%]	RCY NP (1 h) (ligand 10^−7 M) [%]	RCY RP (1 h) (ligand 10^−7 M) [%]
O=C([O-])c1cccc(CN2CCOCCOCCN(Cc3cccc(C(=O)[O-])n3)CCOCCOCC2)n1.[225Ac+3] [[^225Ac]Ac-macropa, reference compound]	99	99	99	90	56	37
C#CCOc1cc(CN2CCOCCOCCN(Cc3cc(OCC#C)cc(C(=O)[O-])n3)CCOCCOCC2)nc(C(=O)[O-])c1.[225Ac+3] [[^225Ac]Ac-mcp-D-click]	99	99	99	99	52	41
C#CCOc1cc(CN2CCOCCOCCN(Cc3cccc(C(=O)[O-])n3)CCOCCOCC2)nc(C(=O)[O-])c1.[225Ac+3] [[^225Ac]Ac-mcp-M-click]	99	96	99	97	20	23
O=C(O)CC[C@H](NC(=O)N[C@@H](CCCCNC(=O)[C@H](Cc1ccc2ccccc2c1)NC(=O)[C@H]1CC[C@H](CNC(=O)CCCCn2cc(COc3cc(CN4CCOCCOCCN(Cc5cccc(C(=O)O)n5)CCOCCOCC4)nc(C(=O)O)c3)nn2)CC1)C(=O)O)C(=O)O [[^225Ac]Ac-mcp-M-PSMA, metal not drawn]	99		99		89	
O=C(O)CCCCn1cc(COc2cc(CN3CCOCCOCCN(Cc4cccc(C(=O)[O-])n4)CCOCCOCC3)nc(C(=O)[O-])c2)nn1.[225Ac+3] [[^225Ac]Ac-mcp-M-COOH]	99	99	99	98	98	98
O=C(O)CC[C@H](NC(=O)N[C@@H](CCCCNC(=O)[C@H](Cc1ccc2ccccc2c1)NC(=O)[C@H]1CC[C@H](CNC(=O)CCCCn2cc(COc3cc(CN4CCOCCOCCN(Cc5cc(OCc6cn(CCCCC(=O)NC[C@H]7CC[C@H](C(=O)N[C@@H](Cc8ccc9ccccc9c8)C(=O)NCCCC[C@H](NC(=O)N[C@@H](CCC(=O)O)C(=O)O)C(=O)O)CC7)nn6)cc(C(=O)O)n5)CCOCCOCC4)nc(C(=O)O)c3)nn2)CC1)C(=O)O)C(=O)O [[^225Ac]Ac-mcp-D-PSMA, metal not drawn]	99		99		93	
